Publication PMC7336387
The exact form of at least one protein or probe is not confirmed. For part of these data: A negative result means that nothing was seen under these conditions. At least one verdict was read from the data and is not stated in words by the source. Protein sequences can lack the tags named with them.

What was measured:
[1] = molecular target: T1, His6-MBP-SPL13 (UniProt A0A3Q7HAE1); experiment: EMSA; conditions: LightShift Chemiluminescent EMSA Kit, 20 uL reaction, 30 min at room temperature, 6% native polyacrylamide gel; salt and pH not stated; recombinant protein; protein details: N-terminal His6-MBP; label: 3' biotin
T1 sequence (looked up, limits assumed): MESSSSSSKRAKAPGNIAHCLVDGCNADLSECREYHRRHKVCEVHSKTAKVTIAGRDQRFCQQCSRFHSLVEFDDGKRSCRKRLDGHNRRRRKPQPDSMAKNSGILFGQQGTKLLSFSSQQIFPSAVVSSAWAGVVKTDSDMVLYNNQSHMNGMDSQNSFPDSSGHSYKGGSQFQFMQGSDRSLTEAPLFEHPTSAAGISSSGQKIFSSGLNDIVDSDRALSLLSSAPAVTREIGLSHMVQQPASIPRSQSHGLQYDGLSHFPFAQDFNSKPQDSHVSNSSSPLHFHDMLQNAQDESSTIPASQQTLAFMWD

[2] = molecular target: T1, His6-MBP-SPL13; experiment: competition with a labelled probe; conditions: LightShift Chemiluminescent EMSA Kit, 20 uL reaction, 30 min at room temperature, 6% native polyacrylamide gel, salt and pH not stated, recombinant protein, protein details: N-terminal His6-MBP

Sequence | binding result [1] | also measured
TAACTAGCTAGCTAGGAGTACTCTTGTGTTGTGTTTTAG (double strand) [SFT probe 1] | binds | –
ATTTTGTAATAAAATATTAAGATTGCTCTTTTCTTATTG (double strand) [SFT mProbe 2] | no binding | –
TAACTAGCTAGCTAGGAAAGATCTTGTGTTGTGTTTTAG (double strand) [SFT mProbe 1] | no binding | –
TAACTAGCTAGCTAGGAGTACTCTTGTGTTGTGTTTTAG (double strand) [SFT probe 1 unlabelled competitor] | – | binding result ([2]; labelled probe 1, competitor ratios 1:1 and 1:2): binds
ATTTTGTAATAAAATATTGTACTTGCTCTTTTCTTATTG (double strand) [SFT probe 2] | binds | –
ATTTTGTAATAAAATATTGTACTTGCTCTTTTCTTATTG (double strand) [SFT probe 2 unlabelled competitor] | – | binding result ([2]; labelled probe 2, competitor ratios 1:1 and 1:2): binds
